No signal at the amounts used counts as a negative. For at least one entry, the source does not settle the construct or the ends of the probe. The comparison behind a weaker result is the experiment's own reference, which may not be listed here.

The data set has as its system alpha-thrombin (Bos taurus). Nature of the data set: inhibition of the protein. The following applies: purified native protein, protein details: Armour Pharmaceutical Co., 5000 U, folded or branched DNA.

Consider “ACTGGTTGGTGAGGTTGGGTGCGAAGC [TC1 (linear)]”, for which, where the note is “5'-phosphate, dose not given here”, the “functional effect of the aptamer” value was “less active”.
Turning to “CTGGGTTGGTGAGGTTGGTCAGCACGGTTGGTGAGGTTGGTGTG [cDH6-1]”, the functional effect of the aptamer (circular (5'-3' ligated), clotting time, 100 nM DNA, selection buffer 37 C, baseline 41 s, similar to negative controls, variant of DH6-1 (unligated), counted as no effect) was found to be 49 s.
With “CTGGGTTGGTGAGGTTGGTCAGCACGGTTGGTGAGGTTGGTGTG [DH6-1 (unligated)]”, the functional effect of the aptamer (5'-phosphate, clotting time, 100 nM DNA, selection buffer 37 C, baseline 41 s, described as no inhibition, counted as no effect) was 54 s.
“GCTGTGGTTGGTGAGGTTGGCAGCAGCCAAGGTAACCAGTACAAGGTGCTAAACGTAATGGCTTCGGCT [TS1-1 (unligated)]”: under “5'-phosphate, clotting time, 100 nM DNA, selection buffer 37 C, baseline 41 s, serum (50 nM) 44 s, similar to negative controls, counted as no effect”, the functional effect of the aptamer is 53 s.
Turning to “GCTGTGGTTGGTGAGGTTGGCAGCAGCCATTCACCATGGCCCCTTCCTACGTATGTTCTGCGGGTGGCT [TS3-1 (unligated)]”, the “functional effect of the aptamer” value (5'-phosphate, clotting inhibition similar to negative controls, dose not given here) is listed as “not active”.
